PubChem BioAssay AID1259254 – NCATS, 2017
Test: 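Gene knock-downs that lead to re-replication, shown by excess G2 DNA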 (primary screen). Cells: human HCT116 colorectal cancer cells. Reagent: single siRNA against human genes. Time to read-out: 3 days. Detection: 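Nuclei stained with Hoechst and imaged; cell-cycle phase assigned by DNA content; G2 share scaled per plate, non-targeting siRNA 0%, GMNN siRNA 100%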. Reading the numbers: G2 robust z-score and G2 cells, % of GMNN control: higher = more G2 cells, more excess DNA replication; raw share of cells in G2: higher = larger share of cells with G2 DNA content. Active means: 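An siRNA counts as active if its G2 robust z-score lies at least 5 MADs above the screen median; here such calls match roughly 38% of GMNN control or more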.
Here is an unselected part of about 59,000 deposited reagents. Over the whole deposit, about 1,550 (2.6%) are marked active. 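G2 share is only a proxy for re-replication; each gene was hit by three separate siRNAs, and active genes were retested.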 Raw values are not corrected between plates. Unmarked entries are inactive. Reagents against one gene are numbered here. The record does not give: the amount of reagent.

gene symbol	reagent no.	G2 robust z-score	G2 cells, % of GMNN control	raw share of cells in G2 (%)
CASP10 (caspase 10)	1	2.01	17.1	11.5
CASP10 (caspase 10)	2	4.29	33.1	16.6
CASP10 (caspase 10)	3	-0.699	-1.95	3.18
FGFR1 (fibroblast growth factor receptor 1)	1	-0.615	-1.36	5.16
FGFR1 (fibroblast growth factor receptor 1)	2	-0.847	-2.99	4.4
FGFR1 (fibroblast growth factor receptor 1)	3	-0.593	-1.21	3.6
WDR37 (WD repeat domain 37)	1	-1.01	-4.1	3.38
WDR37 (WD repeat domain 37)	2	3.21	25.5	14.7
WDR37 (WD repeat domain 37)	3	-0.399	0.161	3.23
FBLN2 (fibulin 2)	1	-0.827	-2.85	4.18
FBLN2 (fibulin 2)	2	1.57	14	8.64
FBLN2 (fibulin 2)	3	4.25	32.9	17.2
DNASE1L3 (deoxyribonuclease 1L3)	1	-0.0448	2.65	5.96
DNASE1L3 (deoxyribonuclease 1L3)	2	-0.239	1.28	5.42
DNASE1L3 (deoxyribonuclease 1L3)	3	1.54	13.8	8.86
PRR21 (proline rich 21)	1	1.39	12.8	7.86
PRR21 (proline rich 21)	2	1.06	10.4	6.18
PRR21 (proline rich 21)	3	0.18	4.23	5.25
IL17RD (interleukin 17 receptor D)	1	1.68	14.8	8.89
IL17RD (interleukin 17 receptor D)	2	0.928	9.49	8.27
IL17RD (interleukin 17 receptor D)	3	-0.389	0.228	3.27
DNMT1 (DNA methyltransferase 1)	1	-0.996	-4.04	3.52
DNMT1 (DNA methyltransferase 1)	2	-0.413	0.0651	4.12
DNMT1 (DNA methyltransferase 1)	3	-0.2	1.56	5.52
FAM163A (family with sequence similarity 163 member A)	1	-0.717	-2.08	3.13
FAM163A (family with sequence similarity 163 member A)	2	0.999	9.99	6
FAM163A (family with sequence similarity 163 member A)	3	4.56	35	15.3
TAOK2 (TAO kinase 2)	1	-0.581	-1.12	5.24
TAOK2 (TAO kinase 2)	2	2.02	17.2	11.4
TAOK2 (TAO kinase 2)	3	-0.533	-0.785	3.43
BTN2A3P (butyrophilin subfamily 2 member A3, pseudogene)	1	-0.0452	2.65	5.22
BTN2A3P (butyrophilin subfamily 2 member A3, pseudogene)	2	2.28	19	11.1
BTN2A3P (butyrophilin subfamily 2 member A3, pseudogene)	3	-0.993	-4.02	4.13
MCFD2	1	2.32	19.3	13.3
MCFD2	2	1.48	13.3	9.52
MCFD2	3	-1.21	-5.55	3.1
USP13 (ubiquitin specific peptidase 13)	1	-0.145	1.95	6.24
USP13 (ubiquitin specific peptidase 13)	2	-1.27	-5.94	2.81
USP13 (ubiquitin specific peptidase 13)	3	-0.88	-3.23	2.71
PLEKHB2 (pleckstrin homology domain containing B2)	1	-0.839	-2.94	3.4
PLEKHB2 (pleckstrin homology domain containing B2)	2	2.06	17.5	11.4
PLEKHB2 (pleckstrin homology domain containing B2)	3	-0.918	-3.49	2.02
TMEM121B (transmembrane protein 121B)	1	4.79	36.7	17.9
TMEM121B (transmembrane protein 121B)	2	3.38	26.7	14.7
TMEM121B (transmembrane protein 121B)	3	2.04	17.3	8.7
C16orf46 (chromosome 16 open reading frame 46)	1	0.821	8.74	7.6
C16orf46 (chromosome 16 open reading frame 46)	2	1.56	13.9	7.48
C16orf46 (chromosome 16 open reading frame 46)	3	-0.0623	2.53	2.56
PEX5L (peroxisomal biogenesis factor 5 like)	1	-0.436	-0.0983	4.21
PEX5L (peroxisomal biogenesis factor 5 like)	2	-0.997	-4.05	2.25
PEX5L (peroxisomal biogenesis factor 5 like)	3	0.481	6.35	8.83
RAB9A (RAB9A, member RAS oncogene family)	1	0.529	6.69	8.42
RAB9A (RAB9A, member RAS oncogene family)	2	-0.726	-2.14	3.46
RAB9A (RAB9A, member RAS oncogene family)	3	0.153	4.04	5.81
RPL4 (ribosomal protein L4)	1	7.95 (active)	58.9	23.7
RPL4 (ribosomal protein L4)	2	4.66	35.8	18.3
RPL4 (ribosomal protein L4)	3	10.2 (active)	75	30.8
APBA3 (amyloid beta precursor protein binding family A member 3)	1	-0.0754	2.44	4.34
APBA3 (amyloid beta precursor protein binding family A member 3)	2	1.31	12.2	11.4
APBA3 (amyloid beta precursor protein binding family A member 3)	3	0.0998	3.67	4.88
KCNJ5 (potassium inwardly rectifying channel subfamily J member 5)	1	-0.582	-1.13	4.88
KCNJ5 (potassium inwardly rectifying channel subfamily J member 5)	2	-0.808	-2.72	3.86
KCNJ5 (potassium inwardly rectifying channel subfamily J member 5)	3	1.24	11.7	8.95
TIMM9 (translocase of inner mitochondrial membrane 9)	1	-1.22	-5.64	2.14
TIMM9 (translocase of inner mitochondrial membrane 9)	2	-0.256	1.17	4.57
TIMM9 (translocase of inner mitochondrial membrane 9)	3	-1.62	-8.44	2.33
FGFRL1 (fibroblast growth factor receptor like 1)	1	-0.676	-1.79	5.03
FGFRL1 (fibroblast growth factor receptor like 1)	2	-0.395	0.186	5.26
FGFRL1 (fibroblast growth factor receptor like 1)	3	2.15	18.1	9.48
